{
  "sequences": {"note": "Amino acid sequences for entries named in this document (tags omitted). Residues count along the entry.", "UniProt Q00899, whole entry": "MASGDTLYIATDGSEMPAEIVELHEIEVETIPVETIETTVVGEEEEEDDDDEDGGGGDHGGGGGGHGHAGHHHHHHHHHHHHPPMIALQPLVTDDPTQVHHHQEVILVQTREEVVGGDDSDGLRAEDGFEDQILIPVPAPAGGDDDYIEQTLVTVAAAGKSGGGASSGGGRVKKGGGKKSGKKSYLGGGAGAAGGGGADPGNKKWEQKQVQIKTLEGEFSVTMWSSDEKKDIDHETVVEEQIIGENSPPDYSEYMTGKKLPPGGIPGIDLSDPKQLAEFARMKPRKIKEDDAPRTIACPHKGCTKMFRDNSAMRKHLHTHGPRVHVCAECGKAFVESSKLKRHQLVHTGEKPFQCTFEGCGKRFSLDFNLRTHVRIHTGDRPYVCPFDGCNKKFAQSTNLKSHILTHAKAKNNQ", "UniProt P11103, 2-1013": "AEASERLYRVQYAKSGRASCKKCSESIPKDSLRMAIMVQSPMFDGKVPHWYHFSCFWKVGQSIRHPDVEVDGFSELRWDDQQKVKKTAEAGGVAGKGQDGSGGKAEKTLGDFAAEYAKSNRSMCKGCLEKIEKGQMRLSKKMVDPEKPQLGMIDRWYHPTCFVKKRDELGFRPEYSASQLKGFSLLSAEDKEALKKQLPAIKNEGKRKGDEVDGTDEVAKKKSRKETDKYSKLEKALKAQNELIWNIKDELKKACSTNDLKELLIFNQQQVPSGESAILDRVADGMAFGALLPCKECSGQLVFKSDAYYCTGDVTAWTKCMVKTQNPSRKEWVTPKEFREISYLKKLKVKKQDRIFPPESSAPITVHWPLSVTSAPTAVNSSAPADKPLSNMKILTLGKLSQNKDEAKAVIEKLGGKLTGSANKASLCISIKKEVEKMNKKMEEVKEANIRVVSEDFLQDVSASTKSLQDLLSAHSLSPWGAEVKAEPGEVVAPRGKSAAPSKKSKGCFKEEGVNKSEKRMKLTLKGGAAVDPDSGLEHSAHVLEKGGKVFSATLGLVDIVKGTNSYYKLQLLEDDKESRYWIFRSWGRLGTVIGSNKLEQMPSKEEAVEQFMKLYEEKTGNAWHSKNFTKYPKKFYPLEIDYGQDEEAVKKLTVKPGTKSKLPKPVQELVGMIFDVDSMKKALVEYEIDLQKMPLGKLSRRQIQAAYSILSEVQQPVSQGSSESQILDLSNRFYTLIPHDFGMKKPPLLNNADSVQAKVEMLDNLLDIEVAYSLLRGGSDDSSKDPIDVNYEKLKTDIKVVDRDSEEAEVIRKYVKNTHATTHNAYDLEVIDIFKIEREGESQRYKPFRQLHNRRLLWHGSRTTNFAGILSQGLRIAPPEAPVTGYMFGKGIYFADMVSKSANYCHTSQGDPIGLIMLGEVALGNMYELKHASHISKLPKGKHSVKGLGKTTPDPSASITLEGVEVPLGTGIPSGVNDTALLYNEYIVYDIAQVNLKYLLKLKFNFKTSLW"},
  "source": "paper PMC3429435",
  "key": {"[1]": {"target": "YY1 (endogenous, NIH3T3 nuclear extract) (mouse (NIH3T3)) (UniProt Q00899)", "experiment": "EMSA", "conditions": "12.5 mM Hepes pH 7.9, 15 mM MgCl2, 0.5 mM EDTA, 50 mM KCl, 2 mM mercaptoethanol, 0.05% NP-40, 7.5% glycerol, 2 ug poly(dIdC), 10 ug nuclear extract, 37 C 30 min, protein in an extract, label: 32P (kinase)"}, "[2]": {"target": "PARP-1 (endogenous, NIH3T3 nuclear extract) (mouse (NIH3T3)) (UniProt P11103)", "experiment": "EMSA supershift", "conditions": "12.5 mM Hepes pH 7.9, 15 mM MgCl2, 0.5 mM EDTA, 50 mM KCl, 2 mM mercaptoethanol, 0.05% NP-40, 7.5% glycerol, 2 ug poly(dIdC), 10 ug nuclear extract, 37 C 30 min, protein in an extract, label: 32P (kinase)"}, "[3]": {"target": "YY1 (endogenous, NIH3T3 nuclear extract) (mouse (NIH3T3)) (UniProt Q00899)", "experiment": "EMSA supershift", "conditions": "anti-YY1, most pronounced binding; 12.5 mM Hepes pH 7.9, 15 mM MgCl2, 0.5 mM EDTA, 50 mM KCl, 2 mM mercaptoethanol, 0.05% NP-40, 7.5% glycerol, 2 ug poly(dIdC), 10 ug nuclear extract, 37 C 30 min; protein in an extract; label: 32P (kinase)"}},
  "note": "At least one result comes from cells or an extract, where the contact may be indirect. For part of these data: Negatives hold for the conditions tested. Construct, isoform or probe ends are uncertain for at least one entry. For part of these data: The comparison behind a weaker result is the experiment's own reference, which may not be listed here.",
  "data": [
    {"sequence": "ACGAGAAGGAGGATGGATTCTGCCTCGGAG (double strand) [BM7 m4]", "values": [
      {"measurement": "binding result", "setting": "[1]; bands vanishingly weak", "value": "binds more weakly"}
    ]},
    {"sequence": "ACGAGAAGTCTTCTGGCGGAGGCCTCGGAG (double strand) [BM7 m2]", "values": [
      {"measurement": "binding result", "setting": "[1]; YY1 bands absent", "value": "no binding"}
    ]},
    {"sequence": "ACGATCCTTAGGATGGCGGAGGCCTCGGAG (double strand) [BM7 m1]", "values": [
      {"measurement": "binding result", "setting": "[1]", "value": "binds"}
    ]},
    {"sequence": "ACGAGAAGGAGGCGTTAGGAGGCCTCGGAG (double strand) [BM7 m3]", "values": [
      {"measurement": "binding result", "setting": "[2]; anti-PARP-1, YY1 site mutated, AGGCC intact", "value": "no binding"},
      {"measurement": "binding result", "setting": "[1]; YY1 bands absent", "value": "no binding"}
    ]},
    {"sequence": "ACGAGAAGGAGGATGGCGGAGGCCTCGGAG (double strand) [BM7 wild type]", "values": [
      {"measurement": "binding result", "setting": "[2]; anti-PARP-1, YY1 present in extract", "value": "binds"},
      {"measurement": "binding result", "setting": "[3]", "value": "binds"}
    ]},
    {"sequence": "ACGAGAAGGAGGATGGCGGATTAAGAGGAG (double strand) [BM7 m5]", "values": [
      {"measurement": "binding result", "setting": "[2]; anti-PARP-1, YY1 still binds", "value": "no binding"},
      {"measurement": "binding result", "setting": "[1]", "value": "binds"}
    ]}
  ]
}
